No constants are given. Whether binding was seen depends on the method and setting. In cells and extracts the contact can be indirect. Some entries that bind do so weakly or less than the wild type. For some assays here: Sequences can lack the tags named with a protein. Blank lines part the entries; values can stand above or below the binder they belong to.
Experiments:
[1] = target: native rat NR2B subunit of the NMDA receptor (rat) (UniProt Q00960); assay: co-immunoprecipitation of native proteins
[2] = target: native rat NR2B subunit of the NMDA receptor (rat) (UniProt Q00960); assay: summary of the co-immunoprecipitation and in vitro binding experiments
[3] = target: in vitro translated full-length NR2B (Rattus norvegicus (Rat)) (UniProt Q00960); assay: co-immunoprecipitation of in vitro translated proteins with anti-HA
[4] = target: GFP-rat NR2B (full-length, expressed in HEK293T cells) (rat) (UniProt Q00960); assay: co-immunoprecipitation from co-transfected HEK293T cells

Chains of the proteins cited; added tags and fusions are not shown. Lines headed by an entry give the natural chain unless they say otherwise; changes in a name come on top.
UniProt Q00960: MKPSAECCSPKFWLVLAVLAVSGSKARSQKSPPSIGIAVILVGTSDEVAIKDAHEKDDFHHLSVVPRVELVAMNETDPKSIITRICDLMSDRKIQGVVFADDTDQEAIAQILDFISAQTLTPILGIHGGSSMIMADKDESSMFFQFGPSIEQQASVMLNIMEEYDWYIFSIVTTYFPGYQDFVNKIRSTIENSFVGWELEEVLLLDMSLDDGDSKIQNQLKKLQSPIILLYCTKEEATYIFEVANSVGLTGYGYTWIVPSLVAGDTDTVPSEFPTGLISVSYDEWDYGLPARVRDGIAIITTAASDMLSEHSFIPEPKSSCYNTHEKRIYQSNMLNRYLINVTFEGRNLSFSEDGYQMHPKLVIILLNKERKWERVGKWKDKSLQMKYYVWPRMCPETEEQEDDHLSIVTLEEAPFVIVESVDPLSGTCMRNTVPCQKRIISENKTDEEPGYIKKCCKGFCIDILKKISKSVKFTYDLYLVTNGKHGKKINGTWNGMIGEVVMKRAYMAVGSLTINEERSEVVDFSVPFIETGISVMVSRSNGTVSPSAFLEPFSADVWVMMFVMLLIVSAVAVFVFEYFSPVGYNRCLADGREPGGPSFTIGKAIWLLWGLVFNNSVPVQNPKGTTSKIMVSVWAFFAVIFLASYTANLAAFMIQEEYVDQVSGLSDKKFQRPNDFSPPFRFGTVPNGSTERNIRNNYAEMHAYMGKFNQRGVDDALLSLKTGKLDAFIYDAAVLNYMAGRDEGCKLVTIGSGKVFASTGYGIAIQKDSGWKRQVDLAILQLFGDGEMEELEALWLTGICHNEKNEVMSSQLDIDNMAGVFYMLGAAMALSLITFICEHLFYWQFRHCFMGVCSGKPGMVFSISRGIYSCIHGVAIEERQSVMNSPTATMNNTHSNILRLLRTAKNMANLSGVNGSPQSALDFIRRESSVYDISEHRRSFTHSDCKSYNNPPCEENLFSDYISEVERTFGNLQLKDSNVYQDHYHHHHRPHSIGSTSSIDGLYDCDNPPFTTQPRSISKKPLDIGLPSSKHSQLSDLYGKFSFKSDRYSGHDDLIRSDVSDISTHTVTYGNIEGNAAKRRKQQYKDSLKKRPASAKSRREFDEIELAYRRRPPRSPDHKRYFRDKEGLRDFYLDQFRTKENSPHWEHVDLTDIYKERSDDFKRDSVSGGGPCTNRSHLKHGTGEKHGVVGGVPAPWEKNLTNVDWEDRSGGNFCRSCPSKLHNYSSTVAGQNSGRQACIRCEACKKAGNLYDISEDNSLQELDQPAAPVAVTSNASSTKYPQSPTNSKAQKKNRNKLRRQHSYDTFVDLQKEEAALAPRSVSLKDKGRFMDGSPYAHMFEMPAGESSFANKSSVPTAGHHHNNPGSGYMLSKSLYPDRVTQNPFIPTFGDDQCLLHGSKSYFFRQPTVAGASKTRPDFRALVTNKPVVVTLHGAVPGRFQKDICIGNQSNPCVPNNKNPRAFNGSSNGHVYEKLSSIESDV

- binding [1]: binds
- binding [2]: binds
B1: native rat Ras-GRF1 (protein)
chain: MQKAIRLNDGHVVSLGLLAQRDGTRKGYLSKRSSDNPKWQTKWFALLQNLLFYFESDSSSRPSGLYLLEGSICKRMPSPKRGTSSKESDKQHHYFTVNFSNDSQKSLELRTDDSKDCDEWVAAIARASYKILATEHEALMQKYLHLLQVVETEKTVAKQLRQQLEDGEVEIERLKAEIANLIKDNERIQSNQLVAPEDEDSDIKKIKKVQSFLRGWLCRRKWKNIIQDYIRSPHADSMRKRNQVVFSMLEAEAEYVQQLHILVNNFLRPLRMAASSKKPPITHDDVSSIFLNSETIMFLHQIFYQGLKARIASWPTLVLADLFDILLPMLNIYQEFVRNHQYSLQILAHCKQNRDFDKLLKQYEAKPDCEERTLETFLTYPMFQIPRYILTLHELLAHTPHEHVERNSLDYAKSKLEELSRVMHDEVSETENIRKNLAIERMITEGCEILLDTSQTFVRQGSLIQVPMSEKGKINKGRLGSLSLKKEGERQCFLFSKHLIICTRGSGSKLHLTKNGVISLIDCTLLDDPENMDDDGKGQEVDHLDFKIWVEPKDSPPFTVILVASSRQEKAAWTSDIIQCVDNIRCNGLMMNAFEENSKVTVPQMIKSDASLYCDDVDIRFSKTMNSCKVLQIRYASVERLLERLTDLRFLSIDFLNTFLHSYRVFTDAVVVLDKLISIYKKPITAIPARSLELLFSSSHNTKLLYGDAPKSPRASRKFSSPPPLAIGTSSPVRRRKLSLNIPIITGGKALELASLGCPSDGYTNIHSPISPFGKTTLDTSKLCVASSLTRTPEEIDMTTLEESSGFRKPTSDILKEESDDDQSDVDDTEVSPPTPKSFRNRITQEFPLFNYNSGIMMTCRDLMDSNRSPLSATSAFAIATAGANESPANKEIYRRMSLANTGYSSDQRNIDKEFVIRRAATNRVLNVLRHWVTKHSQDFETDDLLKYKVICFLEEVMHDPDLLPQERKAAANIMRTLTQEEITENHSMLDELLLMTEGVKTEPFENHSAMEIAEQLTLLDHLVFKSIPYEEFFGQGWMKADKNERTPYIMKTTRHFNHISNLIASEILRNEEVSARASTIEKWVAVADICRCLHNYNAVLEITSSINRSAIFRLKKTWLKVSKQTKSLFDKLQKLVSSDGRFKNLRETLRNCDPPCVPYLGMYLTDLAFLEEGTPNYTEDGLVNFSKMRMISHIIREIRQFQQTTYKIEPQPKVTQYLVDETFVLDDESLYEASLRIEPKLPT

- binding [4]: binds
B4: full-length mouse RasGRF1 (protein, UniProt P27671 1-1262, looked up)
chain: MQKAIRLNDGHVVTLGLLAQKDGTRKGYLSKRSADNPKWQTKWFALLQNLLFYFESDSSPRPSGLYLLEGSICKRAPSPKRGTSSKESGEKQQHYFTVNFSNDSQKTLELRTEDAKDCDEWVAAIARASYKILATEHEALMQKYLHLLQVVETEKTVAKQLRQQLEDGEVEIERLKTEVTITNLIKDNDRIQSSNKAGSADDEDSDIKKIKKVQSFLRGWLCRRKWKNIIQDYIRSPHADSMRKRNQVVFSMLEAEAEYVQQLHILVNNFLRPLRMAASSKKPPITHDDVSSIFLNSETIMFLHQIFYQGLKARISSWPTLVLADLFDILLPMLNIYQEFVRNHQYSLQILAHCKQNRDFDKLLKQYEAKPDCEERTLETFLTYPMFQIPRYILTLHELLAHTPHEHVERNSLDYAKSKLEELSRIMHDEVSETENIRKNLAIERMITEGCEILLDTSQTFVRQGSLMQMSLSEKSKSSRGRLGSLSTKKEGERQCFLFSKHLIICTRGSGGKLHLTKNGVISLIDCTLLDEPENLDDEAKGAGPEIEHLEFKIGVEPKDSLPFTVILVASTRQEKAAWTSDIIQCVDNIRCNGLMMNAFEENSKVTVPQMIKSDASLYCDDVDIRFSKTMNSCKVLQIRYASVERLLERLTDLRFLSIDFLNTFLHSYRVFTNAMVVLDKLINIYRKPMSAIPARSLELLFSSSHNAKLLYGDAPKSPRASRKFSSPPPLAIGTSSPSRRRKLSLNIPIITGGKALELASLGCSSDSYANIHSPISPFGKTTLDTGKLCMASSLPKTPEEIDVPATIPEKPGELSASRKHSSDVLKEESEDDQNHSDEDNTEVSPVKSPPTPKSFLNRTITEFPFFNYNNGILMTTCRDLVDNNRSTLSATSAFAIATAGANEGPSNKEVFRRMSLANTGFSSDQRNIDKEFVIRRAATNRVLNVLRHWVTKHTQDFDTDDTLKYRVICFLEEVMHDPDLLTQERKAAANIIRTLTLEETTEQHSMLEEVILMTEGVKTEPFENHPALEIAEQLTLLDHLVFKSIPYEEFFGQGWMKAEKYERTPYIMKTTKHFNHVSNFIASEIIRNEDISARASAIEKWVAVADICRCLHNYNAVLEITSSINRSAIFRLKKTWLKVSKQTKSLLDKLQKLVSSDGRFKNLRESLRNCDPPCVPYLGMYLTDLVFIEEGTPNYTEDGLVNFSKMRMISHIIREIRQFQQTTYKIDPQPKVIQYLLDESFMLDEESLYESSLLIEPKLPT

The remaining lines, values behind:

B2: HA-tagged RasGRF1 fragment, amino acids 714-1244 (protein, not shown: small tags and cut ends)
chain: RASRKFSSPPPLAIGTSSPVRRRKLSLNIPIITGGKALELASLGCPSDGYTNIHSPISPFGKTTLDTSKLCVASSLTRTPEEIDMTTLEESSGFRKPTSDILKEESDDDQSDVDDTEVSPPTPKSFRNRITQEFPLFNYNSGIMMTCRDLMDSNRSPLSATSAFAIATAGANESPANKEIYRRMSLANTGYSSDQRNIDKEFVIRRAATNRVLNVLRHWVTKHSQDFETDDLLKYKVICFLEEVMHDPDLLPQERKAAANIMRTLTQEEITENHSMLDELLLMTEGVKTEPFENHSAMEIAEQLTLLDHLVFKSIPYEEFFGQGWMKADKNERTPYIMKTTRHFNHISNLIASEILRNEEVSARASTIEKWVAVADICRCLHNYNAVLEITSSINRSAIFRLKKTWLKVSKQTKSLFDKLQKLVSSDGRFKNLRETLRNCDPPCVPYLGMYLTDLAFLEEGTPNYTEDGLVNFSKMRMISHIIREIRQFQQTTYKIEPQPKVTQYLVDETFVLDDESLYEASLRIEPKLPT
- binding [3]: binds

B3: HA-tagged RasGRF1 fragment, amino acids 714-913 (protein, not shown: small tags and cut ends)
chain: RASRKFSSPPPLAIGTSSPVRRRKLSLNIPIITGGKALELASLGCPSDGYTNIHSPISPFGKTTLDTSKLCVASSLTRTPEEIDMTTLEESSGFRKPTSDILKEESDDDQSDVDDTEVSPPTPKSFRNRITQEFPLFNYNSGIMMTCRDLMDSNRSPLSATSAFAIATAGANESPANKEIYRRMSLANTGYSSDQRNIDK
- binding [3]: binds
